These are literature values, as cited in patent US20110092579A1, “Solubilized formulation of docetaxel” (Scidose LLC, priority 2009, published 2011).

Turning to `CC(=O)O[C@@]12CO[C@@H]1C[C@H](O)[C@@]1(C)C(=O)[C@H](O)C3=C(C)[C@@H](OC(=O)[C@H](O)[C@@H](NC(=O)OC(C)(C)C)c4ccccc4)C[C@@](O)([C@@H](OC(=O)c4ccccc4)[C@H]21)C3(C)C` [docetaxel, (2R,3S)-N-carboxy-3-phenylisoserine, N-tert-butyl ester, 13-ester with 5beta-20-epoxy-1,2α,4,7β,10β,13α-hexahydroxytax-11-en-9-one 4-acetate 2-benzoate, trihydrate], the Solubility in water result is reported as “practically insoluble in water”.
